Measured values: article PMC11850723
No constants are given. Whether binding was seen depends on the method and setting. In cells and extracts the contact can be indirect. A result given as binding can be weak or reduced; the word gives no strength. For some assays here: Tags and fused reporters may be left off the sequences shown.

The chains behind the UniProt entries cited, without tags or fusion partners. Where a name states a change or a piece, a line headed by the entry shows the natural chain unless it says otherwise.
UniProt P32897: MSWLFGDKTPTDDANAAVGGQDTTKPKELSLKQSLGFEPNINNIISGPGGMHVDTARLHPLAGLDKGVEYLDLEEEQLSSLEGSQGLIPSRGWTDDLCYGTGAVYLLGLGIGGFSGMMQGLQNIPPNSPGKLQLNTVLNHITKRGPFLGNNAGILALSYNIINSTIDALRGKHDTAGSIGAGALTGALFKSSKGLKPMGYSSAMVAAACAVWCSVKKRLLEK

Key:
[1] = biological target: T1, Dbi1 genomically tagged with a C-terminal His-tag (S. cerevisiae) (UniProt Q12082); assay: cross-linking; DSG in intact energized mitochondria (SI buffer, 30 min on ice); then solubilized in 1% SDS, diluted, bound to NiNTA-agarose by the His-tag of Dbi1; western blotting with Tim23N antibodies
T1 sequence: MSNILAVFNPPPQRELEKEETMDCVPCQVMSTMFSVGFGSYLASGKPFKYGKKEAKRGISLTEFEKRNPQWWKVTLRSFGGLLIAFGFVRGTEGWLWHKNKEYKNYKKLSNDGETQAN

[2] = biological target: T2, Dbi1 (disulfide bond formation in inner membrane proteins), protein encoded by ORF YDL157c (S. cerevisiae (endogenous in YPH499 mitochondria)) (UniProt Q12082); assay: cross-linking; DSG in intact energized mitochondria (SI buffer, 30 min on ice); SDS-PAGE and western blotting with Tim23N antibodies
T2 sequence: T1 sequence

binding [1]: binds | binding [2]: binds
Substance: Tim23-87A5 (Tim23 of the tim23-87A5 mutant) (from UniProt P32897)
